This is one part of the list.

Sequences of proteins named here, by UniProt entry; tags and fusion partners are left off.
UniProt Q0JBA9, entry or part of it: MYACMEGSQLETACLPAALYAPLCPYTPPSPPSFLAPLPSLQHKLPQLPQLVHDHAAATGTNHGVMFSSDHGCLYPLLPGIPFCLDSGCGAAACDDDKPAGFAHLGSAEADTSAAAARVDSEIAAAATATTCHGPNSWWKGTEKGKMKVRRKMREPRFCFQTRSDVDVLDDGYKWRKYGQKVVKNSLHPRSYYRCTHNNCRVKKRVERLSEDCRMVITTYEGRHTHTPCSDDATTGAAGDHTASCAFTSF

The test deals with OsWRKY34 (Oryza sativa, UniProt Q0JBA9 1-250). Description: protein-binding microarray (RPBM); PBS, 2% BSA, 51.3 ng/ul salmon testes DNA, 50 uM zinc acetate, 200 nM TF, 25 C, 1 h; high values mean tight binding. The note with it: protein: recombinant; tags: N-terminal polyhistidine and DsRed monomer fusion (pET32a); label: CyDye5-dUTP incorporated in the synthesized complementary strand; 3' TTTTT single-stranded linker to array surface; dsDNA, one strand shown. In a few lines: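 A custom Agilent array was converted to double-stranded form by primer extension with Cy5-dUTP and blocked with 2% BSA. Protein at 200 nM in PBS with 2% BSA, salmon testes DNA and 50 µM zinc acetate was applied for 1 h at 25 °C, followed by washing. The proteins were polyhistidine–DsRed N-terminal fusions of transcription factors, expressed in E. coli BL21-CodonPlus and Ni–NTA-purified. The binding signal is per-feature fluorescence intensity (arbitrary units) from an Axon 4000B scanner.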
Turning to “TCAGGGGTGGTGGTTCGTTGAAGTCGGCCGATGGAGGGGCCGGAGTCACCTAGTGCAG”, the binding signal was 9550 fluorescence intensity (a.u.).

For “TTAGGATACATGGGAATTTTAGTGGGGATAGGATGGGGAACGGAGTCACCTAGTGCAG”, the binding signal was 8520 fluorescence intensity (a.u.). For the sequence “CGGTGTCGGATTTTTGGTTGGTTGACGGGGTTTGTGAGGTCGGAGTCACCTAGTGCAG”, the binding signal was 17500 fluorescence intensity (a.u.). Under “GTGCTATCTGTGTGGGTGATTGATTCATTGGTCAACTCAACGGAGTCACCTAGTGCAG” stands 8800 fluorescence intensity (a.u.); under “GCATCATTATGAGTTTTTTTTTTGTTTGCTGCTTCTGATACGGAGTCACCTAGTGCAG”, 8300 fluorescence intensity (a.u.). In the case of “GTCTCGCGCCAGTGCGTCTCTTCCTCGCGCGGCGATCATGCGGAGTCACCTAGTGCAG” it was 9580 fluorescence intensity (a.u.). Regarding “TTATCTCCTCATCCATTTTCATCCTCGTCTACATTCACTGCGGAGTCACCTAGTGCAG”, the binding signal is 8510 fluorescence intensity (a.u.). Under “GGGGTGGGCGGCCGCGGGAGCTCCACGGCATCGATCGCCACGGAGTCACCTAGTGCAG” stands 8040 fluorescence intensity (a.u.). Regarding “CGCCACCACCTACCGCCATTCGCCGCCGTATATATAACACCGGAGTCACCTAGTGCAG”, the binding signal was 13800 fluorescence intensity (a.u.). In the case of “TATTTTTTGCTATTATCTTTTGTGTAAGCATATTCTCTCTCGGAGTCACCTAGTGCAG” it was 9860 fluorescence intensity (a.u.); in that of “CAAACTTCCAACTTTTCTGTCACATTATTTTAATTTTTTCCGGAGTCACCTAGTGCAG”, 10500 fluorescence intensity (a.u.); in that of “TGTCCGCGGTCTCTTATTATGGGTTGCATTTTCCCCAAACCGGAGTCACCTAGTGCAG”, 10200 fluorescence intensity (a.u.).

“GCCGCGCCGTTTGTTCGTGCTGATTCTCTCTCTCTCTCTACGGAGTCACCTAGTGCAG”: the binding signal is 11800 fluorescence intensity (a.u.). In the case of “TTTCGGACAGGGCCAGTTCTCCATCAGTCCATCCAAATTGCGGAGTCACCTAGTGCAG”, the binding signal was 9220 fluorescence intensity (a.u.). As to “CATGCAACATACCCATCCCATCGTCATCCTCATCATCATCCGGAGTCACCTAGTGCAG”, the binding signal was 9010 fluorescence intensity (a.u.).

For “GTGGGCTGGGGCTGAGATGGGCCTTAATTTGCAGTGGATCCGGAGTCACCTAGTGCAG”, the binding signal is 8770 fluorescence intensity (a.u.).

As for “TCGTCTCCTCACCCCGCTGCTTCTCGACACCGCCACCGCACGGAGTCACCTAGTGCAG”, the binding signal is 8860 fluorescence intensity (a.u.).

On to “GATGTCCCTTAATACCCCACTAGATTATGCTATCTACTCTCGGAGTCACCTAGTGCAG”, for which the binding signal is 9610 fluorescence intensity (a.u.). Under “GGTTATCGTTCTGAACTTCTGATGTTGCTGTTCAAATTTCCGGAGTCACCTAGTGCAG” stands 14900 fluorescence intensity (a.u.); under “GGTGGTGTGCCGTGCGTGTGGTGTGCGTGCGTGGCTAACTCGGAGTCACCTAGTGCAG”, 8050 fluorescence intensity (a.u.); under “TATGTCACTAGCACCATATGTAACTAACACTCTCTCTAAACGGAGTCACCTAGTGCAG”, 9000 fluorescence intensity (a.u.). With “TTTTCTCACATGTTTGGCCATTCGTCTTATTAAAAACTTTCGGAGTCACCTAGTGCAG”, the binding signal was 11000 fluorescence intensity (a.u.). With “TTTTCTTTGTCTCTGTCCGCTCTTTTTTTTTATTTTTTATCGGAGTCACCTAGTGCAG”, the binding signal is 12300 fluorescence intensity (a.u.). In the case of “GTGAAGGGTATTTTTTTTAAAAAAAAATGGTGTGATGCGGCGGAGTCACCTAGTGCAG”, the binding signal was 8180 fluorescence intensity (a.u.). In the case of “TCGTCGCCTCGCCTCGCCGATCCGCCTCTCGTTCCGCCCGCGGAGTCACCTAGTGCAG”, the binding signal was 9430 fluorescence intensity (a.u.).

For the sequence “ACTAACGAAATTACTACTTCGTAGGGGTAGGGGTGGCGTGCGGAGTCACCTAGTGCAG”, the binding signal was 9370 fluorescence intensity (a.u.).

As for “TGTTCATGTTTAACTCTAGAGTTTGACTTTTTTTTTACGGCGGAGTCACCTAGTGCAG”, the binding signal is 16300 fluorescence intensity (a.u.). Regarding “ATTCGTGCTAAAAATCTGATTGTGGTATATTTTCTGTGGCCGGAGTCACCTAGTGCAG”, the binding signal is 8170 fluorescence intensity (a.u.). Under “CGTCTTTGCCGGCCTCGCACATCATCTCTCTCTTTTCTTGCGGAGTCACCTAGTGCAG” stands 16100 fluorescence intensity (a.u.). In the case of “ATGGCCACCCGGTCCTTGTTGACTTCTTGTCAACGATGTGCGGAGTCACCTAGTGCAG” it was 11500 fluorescence intensity (a.u.); in that of “GTACATACGTAAAATACTCCATTTGTTTCTAAATATTTGACGGAGTCACCTAGTGCAG”, 9110 fluorescence intensity (a.u.).

On to “TGTTATTATTGCCGTTGTCTTTATTTTTCTTTTTTGAAAACGGAGTCACCTAGTGCAG”, for which the binding signal is 9580 fluorescence intensity (a.u.). Under “GTCAGTCCCATTTCCACCACACAGCAGCAGCATCCATACACGGAGTCACCTAGTGCAG” stands 12500 fluorescence intensity (a.u.).

In the case of “GGCTCCTCGTCGTCGTCGTCATCCTCGGGCAGGGTTGGTACGGAGTCACCTAGTGCAG”, the binding signal was 12400 fluorescence intensity (a.u.). Under “GGTTCTTCTTGTGCACCGCCAGCCCGTTCTCCTCCTCCACCGGAGTCACCTAGTGCAG” stands 8210 fluorescence intensity (a.u.); under “AAACCTCACTATCACACTCATCCTTTCCTACTTGGATTCCCGGAGTCACCTAGTGCAG”, 9200 fluorescence intensity (a.u.). Under “AAGTGTGTAAGCATTCTTATTCTTTCAATTATTTCTATTCCGGAGTCACCTAGTGCAG” stands 8700 fluorescence intensity (a.u.); under “GGTCGTGGGAACAAATTCTTTCACATATGTGTGTTTTCCTCGGAGTCACCTAGTGCAG”, 10100 fluorescence intensity (a.u.). For the sequence “GGTTGGGTTTCGTGGAGAATTGCGGCAGATCTTTGAGATGCGGAGTCACCTAGTGCAG”, the binding signal is 8270 fluorescence intensity (a.u.). Under “GGGCCTCCATGTCGCGCACCGCCACCATCCATCCACACGGCGGAGTCACCTAGTGCAG” stands 9270 fluorescence intensity (a.u.); under “GATCCATCTCCGTATCTCTCACCGACCCCAAATCGCACAGCGGAGTCACCTAGTGCAG”, 8300 fluorescence intensity (a.u.); under “CAATCATACGCTAATGACTTTCCCGTTTTCCGTACCATTACGGAGTCACCTAGTGCAG”, 10600 fluorescence intensity (a.u.). Under “TCCCTCAGCCGTTCATCGCCCCTTTGTCGTCTCAGCACTTCGGAGTCACCTAGTGCAG” stands 8420 fluorescence intensity (a.u.); under “CACACACACACACACACGCAGACCACGCACGCGTCCTAACCGGAGTCACCTAGTGCAG”, 8570 fluorescence intensity (a.u.). On to “GCTACTGTTACACTGTTCCCAGCTACAGTCTACCATTGTCCGGAGTCACCTAGTGCAG”, for which the binding signal is 9630 fluorescence intensity (a.u.). In the case of “ATCTTTGACTTTTCGCCGCACACGCTATAAGGCCAGTCACCGGAGTCACCTAGTGCAG” it was 16000 fluorescence intensity (a.u.); in that of “GCTATACATCCATGATTTTTTTTGGTTATTTTTGAAAATTCGGAGTCACCTAGTGCAG”, 8920 fluorescence intensity (a.u.); in that of “ATTCCTATATGGACTCTACTTTTTCTTTTCTCCGATTAATCGGAGTCACCTAGTGCAG”, 9410 fluorescence intensity (a.u.).

On to “GCTTCACGTGGACCGCGGCCATCATCATCAGGCTGCAGCTCGGAGTCACCTAGTGCAG”, for which the binding signal is 8830 fluorescence intensity (a.u.). In the case of “GTGGTTCGGTGGGGTAATTCATACTGTCGCAATTGTTCAGCGGAGTCACCTAGTGCAG” it was 9850 fluorescence intensity (a.u.); in that of “CCTCACCCGTCTCTGCTCTGCTCTGCTCTCTGTTCCTCGCCGGAGTCACCTAGTGCAG”, 12500 fluorescence intensity (a.u.); in that of “GGCTGTTGACTACACGAAATGATAGGGCTGGGATGGATCGCGGAGTCACCTAGTGCAG”, 8240 fluorescence intensity (a.u.). In the case of “TCACAAACACATGCTAGTAGTATAGTACTGTAATATTTTGCGGAGTCACCTAGTGCAG” it was 8710 fluorescence intensity (a.u.).

“TTGATCCATATATTTTTCTCGGTGTTTGACCCCAAGACTCCGGAGTCACCTAGTGCAG”: the binding signal is 8900 fluorescence intensity (a.u.).

The values above are taken from publication PMC7819943, “Rice protein-binding microarrays: a tool to detect cis-acting elements near promoter regions in rice”.
